Source: PubChem BioAssay AID652272 (Drosophila RNAi Screening Center, 2013)

Screen: 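Genes whose knock-down decreases or increases Hedgehog reporter output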 (primary screen)
Cell system: Drosophila clone 8 (Cl8) cells
Knock-down reagent: long dsRNA against Drosophila genes
Detection: 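Firefly light from a Hedgehog-responsive ptc promoter reporter and Renilla reference light, both read on a plate reader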
Scale: firefly Hh reporter signal: higher = more ptc reporter light; Renilla reference signal: higher = more Renilla control light
Call rule: 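Hit when the z-score averaged over two replicates is under -2 or over +3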
Calls: active = hit: reporter lowered or raised; inactive = not a hit
In all, the deposit lists about 21,000 reagents; this is a random part of those with a known target gene and a result. Over the whole deposit, 503 (2.4%) got an active call. 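Raw plate light values, not normalised; calls rest on replicate z-scores that were not deposited; hits include reporter decreases as well as increases.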 Not given: the amount of reagent, the time to read-out.

gene	dsRNA	firefly Hh reporter signal, replicate 1	firefly Hh reporter signal, replicate 2	firefly Hh reporter signal, replicate 3	Renilla reference signal, replicate 1	Renilla reference signal, replicate 2	activity call
alphaTub84D (GeneID 40904)	DRSC12623	51472	57776		1564	1932	inactive
CG33120 (GeneID 326260)	DRSC02073	1.04e5	62153		4440	2640	inactive
CG14421 (GeneID 31285)	DRSC17918	1.21e5	3.75e5		5488	13347	inactive
EMC3 (GeneID 34479)	DRSC02989	1.28e5	45505		3254	4935	inactive
CG2930 (GeneID 31341)	DRSC17730	1.16e5	95776		2758	2964	inactive
CG18231 (GeneID 40026)	DRSC10307	83680			3370	2487	inactive
CG31036 (GeneID 43539)	DRSC15055	1.45e5	1.37e5		6800	4832	inactive
CG31036 (GeneID 43539)	DRSC15057	82677	1.03e5		3249	3097	inactive
tld (GeneID 42945)	DRSC17084	5.58e5	98059		27128	2621	inactive
CG34425 (GeneID 5740837)	DRSC12210	1.64e5	1.52e5		5305	4176	inactive
CG6985 (GeneID 42694)	DRSC16164	1.34e5	1.13e5		5909	4993	inactive
Tsp42Ea (GeneID 59178)	DRSC04982	96954	54235		2261	4579	inactive
Tsp42Ea (GeneID 59178)	DRSC06792	94448	51081		2407	4537	inactive
CG7332 (GeneID 32885)	DRSC20038	1.13e5	99449		2598	2485	inactive
CG33263 (GeneID 2768952)	DRSC10108	29952	40720	61830	4125	4408	inactive
Sps2 (GeneID 34397)	DRSC03441	96320	50054		2714	4800	inactive
Swt1 (GeneID 32788)	DRSC20028	89128	91779		2149	2116	inactive
CG10565 (GeneID 40332)	DRSC11620	64081	51572		2744	2304	inactive
CG34107 (GeneID 4379852)	DRSC14554	1.29e5	2.09e5		3648	5680	inactive
ctp (GeneID 31405)	DRSC18758	1.49e5	81085		2904	1789	inactive
CG16957 (GeneID 34755)	DRSC02545	79661	50088		2163	4712	inactive
CG14270 (GeneID 31319)	DRSC17913	73090	2.37e5		2410	7328	inactive
Mgat4a (GeneID 39608)	DRSC09326	3.30e5			7965		inactive
Mgat4a (GeneID 39608)	DRSC11070	83158			3315	2445	inactive

Not a retest: 2 of the entries above.
gene	dsRNA	firefly Hh reporter signal, replicate 1	firefly Hh reporter signal, replicate 2	firefly Hh reporter signal, replicate 3	Renilla reference signal, replicate 1	Renilla reference signal, replicate 2	activity call
Mgat4a (GeneID 39608)	DRSC09326	3.30e5			7965		inactive
Mgat4a (GeneID 39608)	DRSC11070	83158			3315	2445	inactive
